PubChem BioAssay AID1159584 – Peter MacCallum Cancer Centre, 2016

Purpose: 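Genes whose loss is lethal only together with E-cadherin loss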 (primary screen)
Cell system: human MCF10A breast epithelial cells, parental and CDH1-null
Knock-down reagent: siRNA against human genes
Measurement: 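ATP luminescence (CellTiter-Glo) viability per line relative to mean mock wells over all plates, and the ratio of CDH1-null to parental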
Scale: CDH1-null / parental viability ratio: higher = CDH1-null cells survive relatively better than parental; CDH1-null viability vs mock: higher = more viable CDH1-null cells; parental viability vs mock: higher = more viable parental cells
Here is one part, drawn at random, of about 18,000 reagents. Reagent sequences are not shown. Not given: the amount of reagent, the time to read-out.

target gene,CDH1-null / parental viability ratio,CDH1-null viability vs mock (fraction of mock),parental viability vs mock (fraction of mock)
UBE2O,1.25,0.8,0.64
RBM22,0.76,0.56,0.74
CTDNEP1,1.06,0.56,0.53
SIRT7,1.28,0.74,0.58
SYDE1,1.11,0.78,0.7
NSD2,1.01,0.97,0.96
FAM229B,0.76,0.52,0.68
PDCD1,1.6,0.72,0.45
PAGE3,1.41,0.65,0.46
NEURL3,0.96,0.94,0.98
KIF27,1.2,1.07,0.89
CRKL,0.78,0.8,1.02
GLUD1,0.91,1.02,1.12
DHX57,0.83,0.68,0.82
FXYD5,1.43,0.63,0.44
METTL25,1.05,1.07,1.02
KLRK1,0.96,0.76,0.79
SLC38A8,1.02,0.46,0.45
CHM,1.15,1.15,1
GEMIN8,1.06,0.89,0.84
LGALS8,1.03,0.9,0.87
CT47A9,0.9,0.57,0.63
ZDHHC23,0.84,0.66,0.79
REG3A,1,0.6,0.6
PCNA,1.08,0.99,0.92
ASAP3,0.71,0.5,0.7
ADAMTS19,1.07,0.98,0.92
ZNF454,1.25,0.55,0.44
TCEAL9,0.88,1.07,1.22
ARIH2,0.92,0.81,0.88
LRRC10,0.83,0.52,0.63
TTLL11,1.14,0.98,0.86
TSPOAP1,1.37,0.78,0.57
ADAMTSL2,1.08,0.82,0.76
SLC48A1,1.53,0.66,0.43
FAM86B1,0.86,0.5,0.58
DKC1,0.87,0.71,0.82
PHAX,0.95,0.69,0.73
ALKBH3,1.02,1.08,1.06
BLID,1.1,0.78,0.71
ATP6AP1L,1.34,0.91,0.68
CUEDC1,1.28,0.95,0.74

An excerpt from above, showing only “CDH1-null / parental viability ratio”:
DHX57: 0.83
FXYD5: 1.43
METTL25: 1.05
KLRK1: 0.96
SLC38A8: 1.02
CHM: 1.15
GEMIN8: 1.06
LGALS8: 1.03
CT47A9: 0.9
ZDHHC23: 0.84
REG3A: 1
PCNA: 1.08
ASAP3: 0.71
ADAMTS19: 1.07

More records:
target gene,CDH1-null / parental viability ratio,CDH1-null viability vs mock (fraction of mock),parental viability vs mock (fraction of mock)
RIMKLA,0.93,0.78,0.84
RPAP3,0.84,0.26,0.31
ACVR2A,1.32,1.19,0.9
SETD6,1.22,0.66,0.54
TMTC2,1,0.7,0.7
SPHKAP,0.73,0.44,0.6
ST6GAL2,0.96,0.68,0.71
TNIP2,1.07,1.14,1.07
COL6A3,0.89,0.68,0.76
JDP2,1.05,0.69,0.66
PHF2,0.73,0.48,0.66
PTPN21,1.17,0.76,0.65
ARHGAP4,1.13,1.11,0.98
PPP5C,1.56,0.84,0.54
BPNT1,1.19,0.89,0.75
CD3E,0.93,0.78,0.84
TYW2,1.09,1.02,0.94
DAB2,1.16,0.74,0.64
GNB3,0.98,0.63,0.64
CDKN1A,1.04,0.85,0.82
ADAMTS13,1.21,0.85,0.7
SMR3B,1.21,0.7,0.58
DOLK,1.32,1,0.76
GCNT1,0.9,0.88,0.98
CYB5R4,1.1,0.68,0.62
LIPH,1.09,1.02,0.94
RAPGEF6,0.71,0.58,0.82
HSD11B2,0.84,0.76,0.9
C1QTNF3,0.98,1,1.02
NARS1,0.95,0.6,0.63
C10orf90,1.21,0.82,0.68
DNM2,1.17,1.08,0.92
DUSP18,1.43,0.97,0.68
DPM3,1,0.78,0.78
OR5D18,0.97,0.94,0.97
MRGPRX4,1.4,1.02,0.73
TMEM200C,0.91,0.82,0.9
PDE7B,1.08,1.18,1.09
MAGEA2B,1.03,0.97,0.94
PDZD9,0.96,0.45,0.47
MUC20,1.2,1.01,0.84
LTB4R2,0.89,0.68,0.76
FERRY3,1.05,0.9,0.86
SCRG1,0.71,0.5,0.7
ADSL,1.19,1.07,0.9
